In publication PMC8224239:
Results are given in words; binding and its absence hold for the method and conditions named. Binding seen in cells or lysates may run through a third protein. Some results given as binding are weak or reduced against the parent protein; the word gives no strength. For part of these data: Sequences can lack the tags named with a protein.

Chains of the proteins cited; added tags and fusions are not shown.
UniProt O14980: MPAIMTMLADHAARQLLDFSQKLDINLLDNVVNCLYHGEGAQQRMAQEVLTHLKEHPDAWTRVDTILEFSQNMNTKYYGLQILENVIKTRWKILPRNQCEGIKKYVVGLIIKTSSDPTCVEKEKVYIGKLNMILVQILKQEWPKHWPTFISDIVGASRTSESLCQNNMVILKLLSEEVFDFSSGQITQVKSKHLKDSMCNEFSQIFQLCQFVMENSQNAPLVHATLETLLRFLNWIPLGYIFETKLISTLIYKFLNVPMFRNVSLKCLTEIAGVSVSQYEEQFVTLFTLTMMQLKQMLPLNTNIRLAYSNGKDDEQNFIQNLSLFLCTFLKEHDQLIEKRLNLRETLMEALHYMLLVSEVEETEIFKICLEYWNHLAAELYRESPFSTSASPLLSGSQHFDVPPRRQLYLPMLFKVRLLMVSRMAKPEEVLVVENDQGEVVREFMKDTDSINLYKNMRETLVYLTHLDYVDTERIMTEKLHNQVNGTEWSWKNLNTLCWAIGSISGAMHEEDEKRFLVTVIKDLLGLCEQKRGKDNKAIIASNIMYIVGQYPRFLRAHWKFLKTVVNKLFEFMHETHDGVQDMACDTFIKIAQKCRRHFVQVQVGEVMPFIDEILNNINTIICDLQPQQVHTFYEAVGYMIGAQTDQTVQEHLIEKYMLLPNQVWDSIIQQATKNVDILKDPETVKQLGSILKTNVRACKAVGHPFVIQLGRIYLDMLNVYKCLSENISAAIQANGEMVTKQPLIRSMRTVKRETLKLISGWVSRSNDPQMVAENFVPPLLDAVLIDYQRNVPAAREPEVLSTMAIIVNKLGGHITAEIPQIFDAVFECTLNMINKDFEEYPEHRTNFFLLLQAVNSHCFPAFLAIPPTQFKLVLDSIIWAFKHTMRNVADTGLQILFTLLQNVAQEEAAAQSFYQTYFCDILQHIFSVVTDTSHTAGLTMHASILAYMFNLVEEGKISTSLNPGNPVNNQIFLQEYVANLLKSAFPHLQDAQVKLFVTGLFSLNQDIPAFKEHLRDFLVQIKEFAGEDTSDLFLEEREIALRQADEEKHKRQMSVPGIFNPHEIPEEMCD
UniProt Q9Y265: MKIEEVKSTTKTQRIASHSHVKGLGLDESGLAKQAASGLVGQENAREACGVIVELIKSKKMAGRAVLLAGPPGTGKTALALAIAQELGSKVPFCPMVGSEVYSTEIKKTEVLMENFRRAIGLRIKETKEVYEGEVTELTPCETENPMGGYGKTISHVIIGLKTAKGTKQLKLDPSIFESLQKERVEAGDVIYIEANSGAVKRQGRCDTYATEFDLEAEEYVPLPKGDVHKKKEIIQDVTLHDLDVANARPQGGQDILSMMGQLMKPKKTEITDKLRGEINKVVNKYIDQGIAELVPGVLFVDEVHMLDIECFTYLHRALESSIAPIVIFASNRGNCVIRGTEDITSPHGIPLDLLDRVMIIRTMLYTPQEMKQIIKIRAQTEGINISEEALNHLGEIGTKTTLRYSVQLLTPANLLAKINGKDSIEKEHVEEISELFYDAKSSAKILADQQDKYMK

Key:
[1] = target: ecdysoneless (ECD) protein, endogenous (human (endogenous in HEK-293T and MCF10A)) (UniProt O95905); assay: co-IP; endogenous proteins; HEK-293T or MCF10A lysates in Triton lysis buffer (20 mM Tris-HCl pH 7.5, 200 mM NaCl, 1% Triton X-100); 1 mg lysate protein with 5 ug antibody overnight at 4°C, protein A/G-agarose; Western blotting
[2] = target: T1, GST fusion of ECD-P617G (human) (UniProt O95905); assay: pull-down; 20 ug GST fusion protein of ECD or its mutants on glutathione-Sepharose incubated with 1 mg protein lysate of HEK-293T cells transfected with FLAG-DDX39A and/or FLAG-RUVBL1; Western blotting; only the target purified
T1 sequence: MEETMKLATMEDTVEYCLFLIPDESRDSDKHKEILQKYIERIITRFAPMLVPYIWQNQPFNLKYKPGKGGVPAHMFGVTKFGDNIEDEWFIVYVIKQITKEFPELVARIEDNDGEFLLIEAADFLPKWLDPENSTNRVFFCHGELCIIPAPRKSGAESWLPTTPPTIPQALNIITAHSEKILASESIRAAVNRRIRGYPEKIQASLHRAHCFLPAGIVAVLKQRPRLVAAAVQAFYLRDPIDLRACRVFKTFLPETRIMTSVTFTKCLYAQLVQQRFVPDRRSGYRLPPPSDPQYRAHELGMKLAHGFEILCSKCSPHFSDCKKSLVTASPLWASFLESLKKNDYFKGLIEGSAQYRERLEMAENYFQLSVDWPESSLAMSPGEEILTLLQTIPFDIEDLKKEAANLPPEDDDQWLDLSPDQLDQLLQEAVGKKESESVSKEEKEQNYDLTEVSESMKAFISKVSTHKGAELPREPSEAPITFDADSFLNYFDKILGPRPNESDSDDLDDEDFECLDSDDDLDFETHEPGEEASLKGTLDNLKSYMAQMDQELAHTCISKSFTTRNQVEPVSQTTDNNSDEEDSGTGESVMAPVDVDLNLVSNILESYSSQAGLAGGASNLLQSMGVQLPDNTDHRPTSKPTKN

[3] = target: GST fusion with full-length ECD (1 to 644 aa) (human) (UniProt O95905); assay: as above

Row | Substance | binding [1] | binding [2] | binding [3]
1 | CRM1, endogenous (from UniProt O14980 1-1071) | binds |  | 
2 | FLAG-tagged RUVBL1 (from UniProt Q9Y265 1-456) |  | binds | binds
